Measurements reported in patent US7347970B2, “Biocides based on silanol terminated silanes and siloxanes” (University of Florida Research Foundation, Inc., priority 2004, dated 2008).
Some results were stated once for a whole list of compounds, not compound by compound. At least one compound was matched to its structure with a doubt left.

Tested on: E. coli
Test: Antimicrobial (bioactivity) test, plate counts and dilution method, log reduction
Format: cell-based
Conditions: for bioactivity (log reduction of E. coli): FIG. 8; for log reduction of E. coli: 0.1 (% g/g) without cosolvent, FIG. 7
Description: Bioactivity (toxicity) tests were performed using silanols according to the invention along with some controls. E. coli was provided as the target microorganism. […] 20th ed. L. S. Clesceri, A. E. Greenberg, A. D. Eaton (eds.) Washington, D.C. was employed to measure the number of viable cells after the bioactivity tests. The collected sample underwent serial dilutions in which the original sample collected was diluted in a series of dilution tubes. Each succeeding dilution tube will have only one-tenth the number of microbial cells as the preceding tube. Then the samples of the dilution were used to inoculate Petri plates containing solid medium. The sample on the plates was plated evenly over the surface of the solid medium. Colonies grew only on surface of medium and could be counted. This count was used to estimate the number of viable bacterial in the original sample.
Log reduction represents the number of E. coli eliminated through the silanol or other chemical treatment. The experiments were operated for an hour with proper stirring in aqueous solution. […] Log reduction 8 represents the detection limit for the experiment performed, and thus represents complete removal.
Nine (9) ml of D.I. water was mixed with 1 ml of E. coli solution, and antimicrobial materials for 1 hr with magnetic stirring, then sampling was carried out. The plate counting method as described above was employed to measure the viability of the E. coli.

[1] = 2.5% g/g with cosolvent propylene glycol n-propyl ether

| Compound | bioactivity (log reduction of E. coli) [1] | bioactivity (log reduction of E. coli) (2.5% g/g without cosolvent) | log reduction of E. coli |
| --- | --- | --- | --- |
| C[Si]1(C)O[Si](C)(C)O[Si](C)(C)O[Si](C)(C)O1 [D4, octamethylcyclotetrasiloxane, reference compound] | 1 to 2 log | 1 to 2 log | – |
| CC(C)(C)O [t-butanol, reference compound] | 1 to 2 log | 1 to 2 log | – |
| CC(C)(C)[Si](C)(C)O [t-butyldimethylsilanol] | – | – | 1 to 2 log |
| diphenylmethylsilanol | – | – | 1 to 2 log |
